The values below are quoted from earlier work in patent publication US8242165B2, “Mucoadhesive nanoparticles for cancer treatment” (Creighton University, priority 2006, dated 2012).

For the data set the following is noted: 1:1 mixture of Cremophor EL and ethanol.

Consider `CC(=O)O[C@H]1C(=O)[C@@]2(C)[C@H]([C@H](OC(=O)c3ccccc3)[C@]3(O)C[C@H](OC(=O)[C@H](O)[C@@H](NC(=O)c4ccccc4)c4ccccc4)C(C)=C1C3(C)C)[C@]1(OC(C)=O)CO[C@@H]1C[C@@H]2O` [paclitaxel, Paclitaxel], for which the “solubility of paclitaxel in formulation” value is on record as 7 mM.
